# Assay results published in the supplement of paper PMC8007513.
# The other results are listed elsewhere or left out. Repeats are few or missing, and single values can be far off.
# Test system: Saccharomyces cerevisiae BY4743
# Test: growth (OD600) with compound + IPBC relative to untreated control; higher = less growth inhibition
# Conditions: compound concentration: 133 uM; IPBC concentration: 0.5 ug/ml; 20 h
# Description: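 NMCCC compounds (133 uM) combined with IPBC (0.5 ug/ml) against Saccharomyces cerevisiae BY4743 in YPD, 96-well plates. Growth was read as OD600 at 20 h and expressed as % of the untreated control. Single pass.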
row,SMILES,growth [%]
1,CC(=O)\C1=C(/O)C(=O)N(C1C2=CC=CN=C2)C3=CC=C(OCC(O)=O)C=C3 (centres undefined) + CCCCNC(=O)OCC#CI [3-iodo-2-propynyl butylcarbamate (IPBC)],85
2,COc1cc(Br)c(CC(=O)OCC(=O)N2CCNC2=O)cc1OC + CCCCNC(=O)OCC#CI [3-iodo-2-propynyl butylcarbamate (IPBC)],100
3,CN(C)C1(CCCCCC1)CNC(=O)CN2\N=C3\CCCCCN3C2=O + CCCCNC(=O)OCC#CI [3-iodo-2-propynyl butylcarbamate (IPBC)],96.8
4,CCOc1ccccc1-n1nnnc1SCC(=O)NC(=O)Cc1ccccc1 + CCCCNC(=O)OCC#CI [3-iodo-2-propynyl butylcarbamate (IPBC)],90.6
5,COc1ccc(OC)c(C2CCCN2C(=O)COc2ccc(NC(C)=O)cc2)c1 (centres undefined) + CCCCNC(=O)OCC#CI [3-iodo-2-propynyl butylcarbamate (IPBC)],99.9
6,CCc1ccc(S(=O)(=O)N(CCCN2CCCC2=O)CC(=O)N2CCNCC2)cc1 + CCCCNC(=O)OCC#CI [3-iodo-2-propynyl butylcarbamate (IPBC)],105
7,COC(=O)CSc1nc(-c2ccc(F)cc2)cc(C(F)(F)F)n1 + CCCCNC(=O)OCC#CI [3-iodo-2-propynyl butylcarbamate (IPBC)],78.3
8,CC(Oc1ccc(Cl)cc1Cl)C(=O)Nc1ccc(S(=O)(=O)N2CCOCC2)cc1 (centres undefined) + CCCCNC(=O)OCC#CI [3-iodo-2-propynyl butylcarbamate (IPBC)],101
9,COCCN1\C=C/C2=C(OCC(=O)NC3=CC=C(Br)C=C3)C=CC=C2C1=O + CCCCNC(=O)OCC#CI [3-iodo-2-propynyl butylcarbamate (IPBC)],86

# Quoted at random: 2 records from the list
row,SMILES,growth [%]
4,CCOc1ccccc1-n1nnnc1SCC(=O)NC(=O)Cc1ccccc1 + CCCCNC(=O)OCC#CI [3-iodo-2-propynyl butylcarbamate (IPBC)],90.6
7,COC(=O)CSc1nc(-c2ccc(F)cc2)cc(C(F)(F)F)n1 + CCCCNC(=O)OCC#CI [3-iodo-2-propynyl butylcarbamate (IPBC)],78.3
